Experimental data: PubChem BioAssay AID1259261 (Sanger Institute, 2017)
The deposit covers 794 reagents; shown is a part drawn at random. Of all reagents, 10 (1.3%) got an active call. 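Calls reflect knock-down alone without drug; synergy scores with BYL719, cetuximab or trametinib do not affect calls.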 A number with no mark means an inactive call. The numbers tell different reagents against one gene apart. Not all columns of the deposit are shown. The record does not give: the amount of reagent, the time to read-out.

- Assay: 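Find kinase silencing that cuts viability alone or with anchor drugs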 (primary screen)
- Cells: HCC2998 human colorectal cancer cells
- Reagents: siRNA pool against human genes
- Challenge: anchor drugs BYL719 1 µM, cetuximab 5 µg/ml or trametinib 10 nM, each compared with DMSO vehicle
- Detection: 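Cell viability relative to non-targeting siRNA, averaged over replicates, with robust z-score for siRNA alone and synergy scores with each anchor drug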
- Scale: viability z-score, knock-down alone: higher = more viable cells than controls
- Call rule: 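Essential when the siRNA-alone viability robust z-score is below -3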
- Meaning of the calls: active = essential; inactive = no change

viability z-score, knock-down alone, by gene and reagent
IP6K1 (GeneID 9807): #1 1.21
PIK3C3 (GeneID 5289): #1 -0.219
ILK (GeneID 3611): #1 0.699; #2 1.21
BMP2K (GeneID 55589): #1 -0.377
COQ8B (GeneID 79934): #1 -0.687
FXR1 (GeneID 8087): #1 -0.872
CRKL (GeneID 1399): #1 1.21
GRK4 (GeneID 2868): #1 0.597
ERN1 (GeneID 2081): #1 0.285
MAP2K5 (GeneID 5607): #1 1.21
MAPK15 (GeneID 225689): #1 -0.604
TGFBR2 (GeneID 7048): #1 0.393
PRKAR2B (GeneID 5577): #1 -2.98
TESK2 (GeneID 10420): #1 0.214
PRKCI (GeneID 5584): #1 -0.793
MTOR (GeneID 2475): #1 1.21
KMT2B (GeneID 9757): #1 -0.332
PFKL (GeneID 5211): #1 1.21
CDK11B (GeneID 984): #1 -0.649
